We go through five substances from US9499599B2 (Ipsen Pharma S.A.S., priority 2005, dated 2016).

The nature of data set [1]: general procedure: Fmoc solid-phase peptide synthesis; Rink Amide MBHA resin (0.72 mmol/g); MBHA resin ([…]); HBTU/HOBt; HBTU/DIEA; DIC/HOBt. The conditions noted are these: whole synthesis; for final HPLC purity: analytical HPLC.
Data set [2] is described as follows: Fmoc solid-phase peptide synthesis; Rink Amide MBHA resin (0.72 mmol/g); MBHA resin ([…]); HBTU/HOBt; HBTU/DIEA; DIC/HOBt. The conditions noted are these: whole synthesis, scale of the general procedure 0.25 mmol.
The nature of data set [3]: solid-phase peptide synthesis. The conditions noted are these: whole synthesis, scale 0.25 mmol.
[4] abbreviates: scale of the general procedure 0.25 mmol.

In the case of “(Ac-Aib^1, Aib^2,10, Glu(NH-Hexyl)^3,17)hGhrelin(1-28)-NH2”, in data set [1] (scale 0.1 mmol), the “final HPLC purity” value was determined as 97.5%, the isolated mass was 27.1 mg and the isolated yield turned out to be 6.3%.
In the case of “(Aib^1,2,10, Glu(NH-hexyl)^3,17)hGhrelin(1-28)-NH2”, the “final HPLC purity” value in data set [1] (setting [4]) stood at 96.5%.
Consider (Cys^3(S-Decyl))hGhrelin(1-28)-NH2, for which the “final HPLC purity” value in data set [2] (analytical HPLC) worked out at 99.9%. Further, the isolated yield result in data set [2] was “yield 10.2%”.
For H-Inp-D-1-Nal-D-Trp-2-Thi-Lys-NH2, the “final HPLC purity” value in data set [3] (analytical HPLC) stood at 89%. Moreover, the isolated mass in data set [3] turned out to be 31.8 mg.
For the substance Inp-D-2-Nal-D-Trp-Phe-Lys-NH2, in data set [1] (setting [4]), the “final HPLC purity” value is recorded as 99% and the isolated yield is reported as 18.5%.
